Data: PubChem BioAssay AID504834 (National Center for Advancing Translational Sciences (NCATS), 2011)
The campaign covered roughly 320,000 compounds. About 22,000 (6.9%) were called active. This list was built around the results that the source calls inconclusive (neither active nor inactive); the mix of calls is not that of the screen. Calls follow the shape of the dose curve; as a rule, active = well fitted inhibition curve with a large enough effect; inconclusive = small, poorly fitted or top-dose-only effect, or another doubt; inactive = no such curve, though single readings can be large or run the other way. Potencies beside an inconclusive call are fits to weak or partial responses and may not hold up.

assay: Primary qHTS for delayed death inhibitors of the malarial parasite plastid, 96 hour incubation; settings: P. falciparum luciferase reporter growth; series mostly up to 28.7 µM
In short: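 Delayed-death screen, second-generation endpoint: infected erythrocytes, 2% hematocrit, 0.05% parasitemia final; 96 hours at 37 C, 5% CO2; luciferase detection reagent; luminescence decrease equals reduced growth.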
Potency is read from the fitted curve at half-maximal effect.

Row | SMILES | Potency
1 | COc1ccc2[nH]c(=O)c(CN(Cc3ccco3)C(c3nnnn3Cc3ccccc3)C(C)C)cc2c1 (stereo not drawn) | active: 3.29 µM
2 | CCN(CC(=O)NCc1cccs1)C(=O)CCC(=O)c1ccc(F)cc1 | inactive
3 | N#C/C(=N\Nc1ccc([N+](=O)[O-])cc1)C(N)=S | inconclusive: 18.5 µM [inhibitor, partial curve, poor fit]
4 | O=C(O)CSCc1cnn(-c2ccccc2)c1-n1cccc1 | inactive
5 | COC(=O)C(Cc1c[nH]c2ccccc12)NC(C)=O (stereo not drawn) | active: 4.15 µM
6 | CC(C)(C)c1csc(Sc2ccc([N+](=O)[O-])cn2)n1 | inconclusive: 11.7 µM [inhibitor, partial curve, poor fit]
7 | CCc1ccc(NC(=O)CS(=O)CC(=O)NC(C)CCc2ccco2)cc1 (stereo not drawn) | inconclusive: 8.28 µM [inhibitor, partial curve, poor fit]
8 | O=C(NCC1CCCO1)c1ccccc1 (stereo not drawn) | inconclusive: 18.5 µM [inhibitor, single point]
9 | c1cncc(-c2ccc3[nH]ccc3c2)c1 | inconclusive: 13.1 µM [inhibitor, single point]
11 | O=C(Oc1cccc([N+](=O)[O-])c1)N1CCCCC1 | inactive
12 | COc1cc(/C=N/NC(=O)c2cnccn2)ccc1O | inconclusive: 9.28 µM [inhibitor, partial curve, poor fit]
13 | Cc1nn(C)c(C)c1S(=O)(=O)N1CCC(C(=O)Nc2ccc3c(c2)OCCO3)CC1 | inconclusive: 0.329 µM [inhibitor, full curve, poor fit]
14 | Cc1ccc2nc3c(c(C(=O)OCC(=O)NC4CCS(=O)(=O)C4)c2c1)CCCC3 (stereo not drawn) | inconclusive: 16.5 µM [inhibitor, partial curve, poor fit]
15 | COc1ccc(CC(NC(C)=O)C(=O)NC2CCN(C(=O)c3cc(OC)c(OC)c(OC)c3)CC2)cc1 (stereo not drawn) | inconclusive: 10.4 µM [inhibitor, partial curve]
16 | CCOc1cc(NC(=S)NCC(C)C)c(OCC)cc1NC(=O)c1ccco1 | inconclusive: 18.5 µM [inhibitor, single point]
17 | Cc1[nH]nc(SCC(=O)NCc2ccc(Cl)cc2)c1[N+](=O)[O-] | inconclusive: 2.33 µM [inhibitor, full curve]
18 | COc1ccc(C(=O)CCC(=O)Nc2cccnc2)cc1 | inactive
19 | C=CCn1c(SCC(=O)NCc2ccc3c(c2)OCO3)nnc1C1COc2ccccc2O1 (stereo not drawn) | inconclusive: 11.7 µM [inhibitor, partial curve, poor fit]
20 | COc1cc2c(cc1O)C[C@H]1NCCc3cc4c(c-2c31)OCO4 | inconclusive: 18.5 µM [inhibitor, partial curve, poor fit]
21 | O=C(C1CCN(S(=O)(=O)N2CCOCC2)CC1)N1CCN(Cc2ccccc2)CC1 | inconclusive: 4.15 µM [inhibitor, partial curve, poor fit]
22 | Cc1ccc(C(=O)Nc2c3c(nn2C(C)(C)C)CS(=O)(=O)C3)cc1[N+](=O)[O-] | inconclusive: 18.5 µM [inhibitor, single point]

Part of the list above, with tabs.
Row	SMILES	Potency
3	N#C/C(=N\Nc1ccc([N+](=O)[O-])cc1)C(N)=S	inconclusive: 18.5 µM [inhibitor, partial curve, poor fit]
4	O=C(O)CSCc1cnn(-c2ccccc2)c1-n1cccc1	inactive
5	COC(=O)C(Cc1c[nH]c2ccccc12)NC(C)=O (stereo not drawn)	active: 4.15 µM

(further entries)

Row | SMILES | Potency
23 | Clc1ccc2nsnc2c1NC1=NCCN1 | inactive
24 | CCOC(=O)N1CCN(Cc2c(F)cccc2F)CC1 | inconclusive: 9.28 µM [inhibitor, single point]
25 | COc1ccccc1CNC(=O)CCNC(=O)N1CC(=O)Nc2ccccc21 | inconclusive: 18.5 µM [inhibitor, single point]
26 | COC(=O)c1ccccc1NC(=O)Cn1cnc2c(cnn2-c2ccccc2)c1=O | inconclusive: 9.28 µM [inhibitor, partial curve]
27 | Cc1cccc([C@H](NC(=O)OC(C)(C)C)C(=O)OC(C)(C)C)c1 | inconclusive: 16.5 µM [inhibitor, single point]
28 | CCCc1[nH]nc2c1C(c1ccc(O)c(OC)c1)C(C#N)=C(N)O2 (stereo not drawn) | inconclusive: 13.1 µM [inhibitor, single point]
29 | COc1nnnc2c1sc1nc(N3CCOCC3)c3c(c12)CC(C)(C)OC3 | inactive
30 | O=C(O)COc1ccccc1/C=N/NC(=O)c1ccc2c(c1)OCCO2 | inconclusive: 13.1 µM [inhibitor, single point]
31 | CCOC(=O)c1c(C)[nH]c(C(=O)COC(=O)c2cc(C)oc2C)c1C | inactive
32 | Cc1sc2ncnc(N3CCN(S(=O)(=O)c4ccccc4)CC3)c2c1C | inconclusive: 16.5 µM [inhibitor, partial curve, poor fit]
33 | CC1CCN(Cc2nnnn2CCCC(=O)NCCN2CCOCC2)CC1 | inactive
34 | COc1ccc(C(=O)Cn2ccsc2=NC(C)=O)cc1 | inactive
35 | O=C1/C(=C\c2ccc(O)cc2)SC(=S)N1c1cccnc1 | inactive
36 | Cc1ccc(C2(c3noc(CN(C)CC4COCCO4)n3)CCCC2)cc1 (stereo not drawn) | inconclusive: 10.4 µM [inhibitor, single point]
37 | COc1ccc(NS(=O)(=O)c2ccc3nc(COc4ccc(C#N)cc4)[nH]c3c2)cc1 | inconclusive: 1.85 µM [inhibitor, full curve, poor fit]
38 | O=C(C[n+]1cc(-c2ccccc2)n2c1CCC2)OCc1ccccc1 | inconclusive: 0.0026 µM [inhibitor, partial curve, poor fit]
39 | CCCCNC(=O)Oc1cc(CCl)on1 | inconclusive: 6.57 µM [inhibitor, partial curve, poor fit]
40 | COCCNC(=O)CN(Cc1ccc(F)cc1)C(=O)CCC(=O)Nc1nccs1 | inconclusive: 8.28 µM [inhibitor, partial curve, poor fit]
41 | FC(F)(F)c1ccnc(NCc2ccco2)n1 | inactive
42 | Cc1cccc(NC(=O)C2(c3ccccc3)CC2(Cl)Cl)c1 (stereo not drawn) | inconclusive: 2.94 µM [inhibitor, full curve, poor fit]
43 | O=C(COc1cccc(NC(=O)c2cccc([N+](=O)[O-])c2)c1)c1ccc(F)cc1 | inconclusive: 2.62 µM [inhibitor, full curve, poor fit]
